# Results reported in PubChem BioAssay AID1487 (National Center for Advancing Translational Sciences (NCATS), 2009).
# The other results are listed elsewhere or left out. The main result of the screen is listed elsewhere. These columns were measured beside it and carry no call. The list favours compounds with an active or inconclusive main result. Words in brackets tell the shape of the fitted curve; partial curves, single points and poor fits give uncertain potencies.
# Test: qHTS Assay for Modulators of Lamin A Splicing
# Settings: HeLa LMNA splicing GFP/RFP minigene ratio, 48 h
# Procedure, shortened: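 S3 HeLa stable clones carrying a lamin A-EGFP splicing minigene plus DsRed2 were seeded at 600 cells/well in Opti-MEM with 2% FBS, pin-dosed and incubated 48 h at 37°C. Acumen cytometry (488 nm) gave the GFP/RFP total-intensity ratio.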
# [1] = measured here: GFP splicing reporter channel
# [2] = measured here: RFP viability control channel
Structure (SMILES),AC50 [1],AC50 [2]
Cc1ccc(NNC(=O)c2c(C)noc2C)cc1Cl,"35.5 µM [rising, single point]",
Fc1ccccc1COc1ccc(Br)cc1CNCC1CCCO1 (stereo not drawn),,"35.5 µM [rising, single point]"
O=C(c1ccco1)N1CCCN(Cc2nc(-c3ccc4c(c3)OCO4)no2)CC1,,"0.0562 µM [falling, full curve, poor fit]"
COc1cccc(/C=N/NC(=O)CN(CCc2ccccc2)S(=O)(=O)c2ccc(NC(C)=O)cc2)c1,,"14.1 µM [rising, partial curve]"
O=C(Nc1nccs1)c1sc2cc(Cl)ccc2c1Cl,"17.8 µM [falling, single point]","25.1 µM [falling, single point]"
O=C(CSc1nnc2c(Cl)cc(C(F)(F)F)cn12)NCc1ccc(F)cc1,"14.1 µM [rising, single point]",
CC(=O)Nc1ccc(/C(C)=N/NC(=O)c2ccc(CN3CCOCC3)cc2)cc1,,"0.0891 µM [falling, full curve, poor fit]"
CCC(=O)Nc1nnc(Sc2ccc(N(C)C)cc2)s1,"0.398 µM [rising, full curve]","0.355 µM [rising, full curve, poor fit]"
CC(=O)c1ccccc1OCCOCCOc1ccccc1C(C)=O,"11.2 µM [rising, partial curve]","20 µM [rising, partial curve]"
Cc1ccccc1N(C(=O)c1csnn1)C(C(=O)NC(C)(C)C)c1ccncc1 (stereo not drawn),"6.31 µM [falling, partial curve, poor fit]",
CCOC(=O)C1=C(c2cccc(F)c2)NC(=S)NC1C (stereo not drawn),,"3.16 µM [falling, partial curve, poor fit]"
O=C(CN1CCCCC1)Nc1cc(Cl)ccc1Oc1ccccc1,"17.8 µM [rising, partial curve]","11.2 µM [rising, partial curve]"
Nc1nnc(CSCc2ccc(Cl)cc2)s1,"22.4 µM [rising, single point]","31.6 µM [rising, single point]"
CCOC(=O)N1CCC(NC(=O)Cn2c3c(c(-c4ccccc4Cl)cc2=O)CCC3)CC1,,"22.4 µM [rising, single point]"
CNc1nc(-c2ccc(N(C)C)cc2)nc2ccccc12,"35.5 µM [falling, single point]","35.5 µM [falling, single point]"
COc1ccc(C2=CC(=O)C=CC2=O)cc1,,"15.8 µM [falling, single point]"
CCCn1c(=O)c(C(=O)NCc2ccncc2)c(O)c2ccccc21,"14.1 µM [rising, single point]","15.8 µM [rising, single point]"
CCC(=O)N1c2ccc(S(=O)(=O)CCC(=O)NCc3cccs3)cc2CC1C (stereo not drawn),"11.2 µM [falling, single point]",
COc1ccc(-n2nnnc2SCC(=O)Nc2ccccc2N2CCOCC2)cc1,"0.126 µM [falling, full curve, poor fit]","0.316 µM [falling, partial curve, poor fit]"

Structure (SMILES),AC50 [1],AC50 [2]
COc1ccc(-c2nc3scc(CCNS(=O)(=O)c4ccc(Oc5ccccc5)cc4)n3n2)cc1,,"0.178 µM [falling, full curve, poor fit]"
CNC(=O)NC(=O)C(C)Oc1ccccc1F (stereo not drawn),"0.01 µM [rising, full curve, poor fit]",
O=C(Nc1scc(-c2cccs2)c1C(=O)O)c1cccs1,"12.6 µM [rising, single point]","11.2 µM [rising, partial curve]"
CCCNc1ncnc2sc(C)c(C)c12,"12.6 µM [rising, partial curve]","25.1 µM [rising, single point]"
O=C1CC(N(CCc2ccccc2)C(=S)Nc2ccccc2)C(=O)N1c1ccccc1 (stereo not drawn),,"35.5 µM [rising, single point]"
COc1cc(C(=O)N2CCN(c3cc(Cl)ccc3Cl)CC2)cc(OC)c1OC,,"1.26 µM [rising, full curve, poor fit]"
CC(=O)Nc1cccc(OCc2ccc(S(=O)(=O)Cc3ccccc3)cc2)c1,"2 µM [rising, partial curve, poor fit]","12.6 µM [rising, partial curve]"
CCN(C(=O)COC(=O)c1n[nH]c2ccccc12)C1CCS(=O)(=O)C1 (stereo not drawn),"0.316 µM [rising, partial curve, poor fit]","0.251 µM [rising, partial curve]"
Nc1cc2nn(-c3ccccc3)nc2cc1Cl,,"25.1 µM [falling, partial curve]"
ON=Cc1cccn1-c1ccccc1,"35.5 µM [rising, single point]",
CCOC(=O)c1ccc(N2C(=O)C(CC(=O)NC)N(CCc3ccc(OC)c(OC)c3)C2=S)cc1 (stereo not drawn),"35.5 µM [falling, single point]","17.8 µM [falling, single point]"
O=c1[nH]c2ccc(S(=O)(=O)N3CCN(c4ccccc4F)CC3)cc2s1,"31.6 µM [rising, single point]","22.4 µM [rising, single point]"
CC(Oc1ccc(Cl)cc1Cl)C(=O)NCc1ccncc1 (stereo not drawn),,"11.2 µM [rising, partial curve]"
CCOC(=O)c1c(C)[nH]c(C2=NNC(=Nc3ccccc3)SC2)c1C,,"35.5 µM [rising, single point]"
Cc1ccc(N/C(N)=N/c2nc(C(F)(F)F)cc(C(F)(F)F)n2)cc1,"0.251 µM [rising, full curve, poor fit]",
Cc1cc2c(cc1NC(=O)c1ccccc1Cl)n(C)c(=O)c(=O)n2C,"0.0501 µM [falling, full curve, poor fit]","3.98 µM [falling, partial curve, poor fit]"
Cc1ccn2c(=O)cc(CSc3nnc(C)s3)nc2c1,,"1.58 µM [rising, full curve, poor fit]"
CCCCSc1nnc(CSc2nc3nc(C)cc(C)n3n2)o1,,"4.47 µM [rising, full curve, poor fit]"
O=C(c1cccs1)N1N=C(c2ccc(O)cc2)CC1c1ccccc1 (stereo not drawn),"35.5 µM [rising, single point]","35.5 µM [rising, single point]"

Structure (SMILES),AC50 [1],AC50 [2]
Cc1ccc(C)c(N2CCN(CCCNC(=O)c3cnn(-c4ccccc4)c3C3CCN(C(=O)OC(C)(C)C)CC3)CC2)c1,"17.8 µM [falling, partial curve]","17.8 µM [falling, partial curve]"
CCN(CC)S(=O)(=O)c1ccc2oc(C(=O)N3CCCCCC3)c(C)c2c1,,"15.8 µM [rising, single point]"
COc1ccc(C2C(CN3CCOCC3)C(=O)N2c2ccccc2)cc1 (stereo not drawn),,"3.98 µM [rising, partial curve, poor fit]"
CCOC(=O)c1ccc(NC(=S)NCCc2ccccc2F)cc1,,"0.0794 µM [falling, full curve, poor fit]"
CCNC(=O)CSc1nc2ccccc2c(=O)n1CCCOC(C)C,,"31.6 µM [rising, single point]"
O=C(NCc1ccco1)c1cc2sccc2n1Cc1ccccc1,,"35.5 µM [rising, single point]"
COc1ccc(COC(=O)c2ccc(N3CCCC3=O)cc2)cc1F,,"11.2 µM [rising, partial curve, poor fit]"
COc1ccc(Nc2c(-c3ccc(OC)cc3)nc3cnccn23)cc1,"6.31 µM [falling, full curve]","3.98 µM [falling, full curve]"
Nc1nc(-c2ccccc2)c(N=Nc2ccc(Cl)cc2)s1,,"0.0282 µM [rising, full curve, poor fit]"
N=C1SC(c2ccccc2)C(=O)N1c1ncc(Cc2ccccc2)s1 (stereo not drawn),"20 µM [rising, partial curve, poor fit]","14.1 µM [rising, partial curve]"
c1ccc2c(Nc3ccncc3)nc(-c3ccc4c(c3)OCO4)nc2c1,"22.4 µM [falling, partial curve]","35.5 µM [falling, single point]"
CN(C)CCOC(=O)C1(c2ccccc2)CCOCC1,,"0.0794 µM [falling, full curve, poor fit]"
Cc1ccc(-n2c(N)c(C(=O)Nc3c(C)n(C)n(-c4ccccc4)c3=O)c3nc4ccccc4nc32)cc1C,"35.5 µM [falling, single point]","35.5 µM [falling, single point]"
COC(=O)C(C)NC(=O)C1CCCN1S(=O)(=O)c1cc(C)c(Cl)cc1C (stereo not drawn),"22.4 µM [rising, single point]",
FC(F)c1nnc2ccc(Cl)nn12,"6.31 µM [falling, partial curve, poor fit]",
COc1ccc(Nc2ncnc3c2cnn3Cc2ccc(C)cc2)cc1,,"12.6 µM [rising, single point]"
CCOC(=O)N1CCN(c2ncnc3c2cnn3-c2ccc(Cl)cc2)CC1,,"10 µM [rising, partial curve]"
Cc1ccc2nc(NC(=O)C3CCCN(S(=O)(=O)c4cnc[nH]4)C3)sc2c1 (stereo not drawn),"31.6 µM [rising, single point]","35.5 µM [rising, single point]"

# Quoted at random: two records from the list.
Structure (SMILES),AC50 [1],AC50 [2]
c1ccc2c(Nc3ccncc3)nc(-c3ccc4c(c3)OCO4)nc2c1,"22.4 µM [falling, partial curve]","35.5 µM [falling, single point]"
CN(C)CCOC(=O)C1(c2ccccc2)CCOCC1,,"0.0794 µM [falling, full curve, poor fit]"
